Measurements reported in PubChem BioAssay AID493246 (Drosophila RNAi Screening Center, 2011)

Assay: 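Genome-wide search for dsRNAs that reduce cell number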 (primary screen)
Cells: Drosophila Kc and S2R+ cells
Reagents: long dsRNA against Drosophila genes
Detection: 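Cell number per well after knock-down, printed as raw plate values; calls were based on per-plate z-scores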
Scale: Kc cell number and S2R+ cell number: higher = more cells remaining
Rule for the call: 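Active when the per-plate z-score of cell number is 3 or more in the direction of fewer cells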
The deposit covers about 21,000 reagents; this is an unselected part of those that have a named target and a result. Over the whole deposit, 429 (2%) were called active. 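Values are raw and not normalised between plates; calls rest on per-plate z-scores that were not deposited.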 Entries without a mark were called inactive. Reagents against one gene are numbered here. A plus sign joins genes that one reagent is predicted to hit. Not given: the amount of reagent, the time to read-out.

| gene | dsRNA no. | Kc cell number, rep 1 | Kc cell number, rep 2 | S2R+ cell number, rep 1 | S2R+ cell number, rep 2 |
| --- | --- | --- | --- | --- | --- |
| CG32264 | 1 | 1.29e6 (active) | 1.20e6 | 6.99e5 | 8.57e5 |
| CG32264 | 2 | 1.50e6 | 1.38e6 | 1.04e6 | 1.34e6 |
| CG32264 | 3 | 1.36e6 | 1.41e6 | 1.22e6 | 1.18e6 |
| CG32264 | 4 | 1.49e6 | 1.66e6 | 1.09e6 | 1.21e6 |
| CG32264 | 5 | 1.58e6 (active) | 1.55e6 | 5.57e5 | 6.84e5 |
| CG13157 | 1 | 1.47e6 | 1.53e6 | 1.30e6 | 1.37e6 |
| Dus1 (Dihydrouridine synthase 1) | 1 | 1.64e6 | 1.59e6 | 1.14e6 | 1.23e6 |
| Grx5 (Glutaredoxin 5) | 1 | 1.83e6 | 1.86e6 | 1.11e6 | 1.29e6 |
| CG42582 (retired record) | 1 | 1.41e6 | 1.70e6 | 1.26e6 | 1.22e6 |
| Nuf2 | 1 | 1.24e6 | 1.29e6 | 5.51e5 | 5.79e5 |
| crq (croquemort) | 1 | 1.46e6 | 1.52e6 | 1.04e6 | 1.20e6 |
| CG14495 | 1 | 1.50e6 | 1.53e6 | 1.16e6 | 1.25e6 |
| Ir94a (Ionotropic receptor 94a) | 1 | 1.51e6 | 1.49e6 | 1.05e6 | 1.10e6 |
| tos (tosca) | 1 | 1.30e6 | 1.37e6 | 1.23e6 | 1.26e6 |
| Rad17 | 1 | 1.33e6 | 1.42e6 | 1.17e6 | 1.24e6 |
| CR12628 + Mgstl | 1 | 1.40e6 | 1.40e6 | 1.09e6 | 1.16e6 |
| CR12628 + Mgstl | 2 | 1.80e6 | 1.88e6 | 1.21e6 | 1.35e6 |
| Cyp4ac1 (Cytochrome P450 4ac1) | 1 | 1.51e6 | 1.52e6 | 5.42e5 | 6.44e5 |
| Ctr9 | 1 | 1.42e6 | 1.46e6 | 9.92e5 | 9.84e5 |
| CG14537 | 1 | 1.58e6 | 1.53e6 | 1.22e6 | 1.34e6 |
| CG1513 | 1 | 1.54e6 | 1.60e6 | 1.06e6 | 1.15e6 |
| CG1513 | 2 | 1.55e6 | 1.53e6 | 1.27e6 | 1.28e6 |
| Indy (I'm not dead yet) | 1 | 1.58e6 | 1.57e6 | 1.24e6 | 1.29e6 |
| Dic3 | 1 | 1.60e6 | 1.68e6 | 1.20e6 | 1.35e6 |
| TMEM216 + CG11760 | 1 | 1.74e6 | 1.85e6 | 1.48e6 | 1.48e6 |
| CG31928 | 1 | 1.30e6 | 1.39e6 | 1.09e6 | 1.09e6 |
| CG15336 | 1 | 1.54e6 | 1.54e6 | 1.09e6 | 1.18e6 |
| CG9344 | 1 | 1.65e6 | 1.74e6 | 1.27e6 | 4.62e5 |
| Ret (Ret oncogene) | 1 | 1.40e6 | 1.45e6 | 1.12e6 | 1.01e6 |
| Ret (Ret oncogene) | 2 | 1.78e6 | 1.86e6 | 1.28e6 | 3.05e5 |
| Wdr59 (WD repeat domain 59) | 1 | 1.41e6 | 1.44e6 | 1.11e6 | 1.15e6 |
| Elp4 (Elongator complex protein 4) | 1 | 1.25e6 | 1.14e6 | 1.03e6 | 1.18e6 |
| CG7990 | 1 | 1.21e6 | 1.44e6 | 1.10e6 | 1.11e6 |
| CG7990 | 2 | 1.60e6 | 1.64e6 | 9.90e5 | 1.09e6 |
| Dpck (Dephospho-CoA kinase) | 1 | 1.42e6 | 1.57e6 | 1.15e6 | 1.25e6 |
| CG13113 | 1 | 1.76e6 | 1.94e6 | 1.36e6 | 1.54e6 |
| udd (under-developed) | 1 | 1.88e6 | 1.88e6 | 1.43e6 | 1.60e6 |
| CG8272 | 1 | 1.40e6 | 1.47e6 | 1.20e6 | 1.19e6 |
| CG10681 | 1 | 1.47e6 | 1.51e6 | 1.33e6 | 1.31e6 |
| mRpL38 (mitochondrial ribosomal protein L38) | 1 | 1.35e6 | 1.39e6 | 9.28e5 | 1.01e6 |

Hits (from the list above):
| gene | dsRNA no. | Kc cell number, rep 1 | Kc cell number, rep 2 | S2R+ cell number, rep 1 | S2R+ cell number, rep 2 |
| --- | --- | --- | --- | --- | --- |
| CG32264 | 1 | 1.29e6 (active) | 1.20e6 | 6.99e5 | 8.57e5 |
| CG32264 | 5 | 1.58e6 (active) | 1.55e6 | 5.57e5 | 6.84e5 |
